The values below come from PubChem BioAssay AID1307 (SRMLSC, 2008).

Out of some 1,200 compounds screened, fewer than 10 were called active.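 The calls were made as follows: active = inhibition reaching a set limit at one or more tested concentrations; inactive = inhibition under that limit at every dose.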 Some of the results follow. Entries with a potency or affinity are not part of this list.

The experiment in a line: yeast RAM network inhibitors, dose response, S. cerevisiae (AID 1307).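 Also: 0% = DMSO vehicle wells and 100% = 10 µM 1-NA-PP1 control; higher inhibition means more yeast growth since RAM block rescues cells from 5-FOA.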 To be noted: S. cerevisiae RAM network URA3 reporter, 5-FOA growth OD615, hits give high values, yeast express analog-sensitive mutant Cbk1 kinase; at 100 µM unless noted.
Take `N#C/C(=C\c1ccc(-c2ccc(S(=O)(=O)N3CCOCC3)cc2)o1)C(=O)NC1CC1`: the max inhibition is inactive: 2.77% [at 12.5 µM].

In the case of `O=C(O)CSc1nc(-c2ccc(Cl)cc2)nc2c1oc1ccccc12`, the max inhibition is inactive: 6.31% [at 50 µM].

`CCN=c1scc(-c2cccs2)n1/N=C/c1cc(OC)ccc1O`: the max inhibition is inactive: 3.13% [at 50 µM].

Turning to `Cc1ccc(S(=O)(=O)c2c(CO)c(-c3ccccc3)nn2C)cc1`, the max inhibition was inactive: 3.46% [at 6.25 µM].

For the compound `C/C=C/c1ccc(OCC(=O)OCc2csc(Nc3ccc(C)cc3)n2)c(OC)c1`, the max inhibition was inactive: 2.31% [at 50 µM].

Take `CCOC(=O)c1c(C)[nH]c(C)c1C(=O)COC(=O)/C=C/c1cccc(C(F)(F)F)c1`: the max inhibition is inactive: 3.23% [at 3.125 µM].

`CCCN(CC1CC1)C(=O)COC(=O)c1ccc(CNS(=O)(=O)c2ccc(F)c(Cl)c2)cc1`: the max inhibition was inactive: 2.14% [at 0.196 µM].

As to `Cc1cc(Oc2ccc(Cl)cc2)nc(-c2ccccc2O)n1`, the max inhibition is inactive: 2.24%.

For the compound `CCCCCOP(=O)(OCCCCC)C1(NS(=O)(=O)c2ccccc2)C=CC(=O)c2ccccc21` (centres undefined), the max inhibition is inactive: 2.83%.

Consider `CCCCCCOC(=O)c1ccc(NC(=O)c2cc(OC)c(OC)c(OC)c2Br)cc1`, for which the max inhibition was inactive: 3.97% [at 50 µM].

Take `Cc1ccc(NC(=O)c2oc3ccc(S(=O)(=O)N4CCC5(CC4)OCCO5)cc3c2C)cc1C`: the max inhibition was inactive: 5.31%.

For the compound `Cc1ccc(C(=O)c2cc3ccccc3o2)cc1C`, the max inhibition was inactive: 2.43% [at 0.196 µM].

For `Cc1ccc(C(C)C)c(OCC(=O)OCc2c(C)noc2C)c1`, the max inhibition was inactive: 1.54% [at 1.563 µM].

`Cc1ccc(SCC(=O)N2c3ccccc3Sc3ccccc32)cc1`: the max inhibition was inactive: 1.96% [at 12.5 µM].

Consider `CCC(C)c1ccc(NC(=S)NCc2ccccc2OC)cc1` (centres undefined), for which the max inhibition was inactive: 5.65%.

For the compound `CC(C)C[C@@H](CN(C)N=O)N(C[C@H](Cc1ccccc1)N(CCc1ccccc1)N=O)N=O`, the max inhibition is inactive: 5.42% [at 50 µM].

For the compound `CCOC(=O)c1cc(C(C)C)sc1NC(=O)COC(=O)CCS(=O)(=O)c1ccccc1`, the max inhibition was inactive: 3.24% [at 50 µM].

In the case of `CCOc1ccc(S(=O)(=O)N(C)c2ccc(OCC(=O)OCc3c(C)noc3C)cc2)cc1`, the max inhibition is inactive: 2.94% [at 12.5 µM].

Consider `CC1=NN(c2nc(-c3ccc(C)cc3)cs2)C(=O)C1N=Nc1ccc(C(N)=O)cc1` (centres undefined), for which the max inhibition was inactive: 10.3%.

Take `COC(=O)[C@H](Cc1ccccc1)NC(=O)[C@@]1(C)C[C@@H]1[C@@H](NC(=O)OCc1ccccc1)c1ccccc1`: the max inhibition is inactive: 5.9%.

In the case of `CC(C)CSc1nc(N2CCOCC2)c2c(c1C#N)CC(C)(C)SC2`, the max inhibition was inactive: 3.89% [at 50 µM].

Consider `C=C(C)COc1ccc(-c2[nH]ncc2-c2ccc(OC)c(OC)c2)c(O)c1`, for which the max inhibition was inactive: 2.65% [at 50 µM].

Consider `O=C(NCc1ccccc1)C1=C[C@@H](c2ccc(C(F)(F)F)cc2)C[C@@H](OCc2ccc(CO)cc2)O1`, for which the max inhibition is inactive: 6.79%.

In the case of `CCOC(=O)C1CN(S(=O)(=O)c2cccc(C(F)(F)F)c2)c2cc(CC(=O)OC)ccc2O1` (centres undefined), the max inhibition was inactive: 2.04% [at 25 µM].

Turning to `CCOC(=O)c1c(NC(=O)CSc2nncs2)sc(C)c1-c1ccccc1`, the max inhibition was inactive: 4.59%.

Take `O=C(NCCc1ccccc1)c1oc2ccccc2c1COc1ccccc1`: the max inhibition is inactive: 3.75%.

Consider `Fc1ccc(CSc2nnc(Cc3sc(-c4ccccc4)nc3-c3ccccc3)o2)cc1`, for which the max inhibition is inactive: 5.66%.

On to `COCCOC(=O)c1c(C)oc2ccc(OC(=O)COc3c(F)c(F)c(F)c(F)c3F)cc12`, for which the max inhibition was inactive: 2.19%.

For `CC(O)C(NS(=O)(=O)c1ccc(Cl)cc1)C(=O)OCc1cc([N+](=O)[O-])cc2c1OCOC2` (centres undefined), the max inhibition was inactive: 3.12%.

As to `Cc1cc(Br)ccc1OCC(=O)N1CCCCCC1`, the max inhibition is inactive: 1.81% [at 0.782 µM].

Turning to `COc1ccc(-c2nc3ccccc3c(=O)n2CCOc2cccc(C)c2C)cc1`, the max inhibition was inactive: 3.33% [at 0.196 µM].

Consider `CCOC(=O)C1(CCOc2ccccc2)CCN(C(=O)c2ccc(-n3cccn3)cc2)CC1`, for which the max inhibition was inactive: 3.48% [at 25 µM].

For `CCOc1ccc2nc(SCC(=O)c3ccccc3)sc2c1`, the max inhibition is inactive: 3% [at 0.196 µM].

With `Cc1cc(S(=O)(=O)N(Cc2cccs2)Cc2ccccc2F)ccc1-n1cnnn1`, the max inhibition is inactive: 1.54% [at 1.563 µM].

For the compound `Cc1cc(C)c(S(=O)(=O)Nc2ccc3c(c2)CCC3)c(C)c1`, the max inhibition was inactive: 3.31%.

Take `CCOC(=O)c1c(NC(=O)CN2CCCc3ccccc32)sc(C)c1C`: the max inhibition was inactive: 5.5%.

On to `O=S(=O)(Nc1nc2ccccc2nc1Nc1ccc2c(c1)OCCO2)c1cccs1`, for which the max inhibition is inactive: 5.19%.

Take `O=C(CSc1nnc(-c2ccccc2Br)o1)N1CCc2ccccc2C1`: the max inhibition is inactive: 2.54%.

Take `COc1cccc(/C=C2\SC(=S)N(C(Cc3ccccc3)C(=O)O)C2=O)c1` (centres undefined): the max inhibition was inactive: 1.2% [at 3.125 µM].

Turning to `C=CCOC(=O)C1=C(C)NC(SCC)=C(C#N)C1c1ccc(Cl)cc1` (centres undefined), the max inhibition was inactive: 5.31% [at 0.391 µM].

Turning to `O=C(CC1SC(=Nc2ccc(OC(F)F)cc2)N(CCC2=CCCCC2)C1=O)Nc1ccccc1F` (centres undefined), the max inhibition is inactive: 3.9%.

For `O=C(CNC(=S)N(Cc1ccccc1)Cc1ccccc1F)NCc1ccc(Cl)cc1`, the max inhibition is inactive: 5.54%.

Regarding `COC(=O)c1c(CSc2ccc(C)c(C)c2)noc1C(=O)NCc1ccc(OC)cc1`, the max inhibition was inactive: 1.58% [at 0.391 µM].

Turning to `O=C(COC(=O)c1ccccc1Cc1ccccc1)Nc1ccc(SC(F)F)cc1`, the max inhibition is inactive: 3.46%.

In the case of `Cc1cccc(OCC(=O)O/N=C(\N)Cc2ccc([N+](=O)[O-])cc2)c1`, the max inhibition is inactive: 1.81% [at 50 µM].

`O=C(COC(=O)CNS(=O)(=O)c1ccc2ccccc2c1)Nc1ccccc1Sc1ccccc1`: the max inhibition was inactive: 3.35%.

For the compound `CCCC(=O)Oc1c(S(=O)(=O)c2ccc(C)cc2)c(C)nn1C(C)(C)C`, the max inhibition is inactive: 3.54%.

On to `Clc1cccc(Cl)c1CSc1nnc(-c2sccc2-n2cccc2)o1`, for which the max inhibition is inactive: 2.31%.

With `[2H]c1c([2H])c([2H])c(-c2nc(N3CCCCCC3)sc2C(=O)c2ccccc2)c([2H])c1[2H]`, the max inhibition is inactive: 3.34% [at 1.563 µM].
